According to patent publication US20110086797A1, “CONTROL OF SPORE GERMINATION” (priority 2007, published 2011):
Entries after “also recorded” stand apart in the source; their conditions may differ.

Columns and labels:
[1] = tested on: B. subtilis spores; assay: Measurement of germination by loss of heat resistance; type: cell-based, Bacillus subtilis
[2] = tested on: spores expressing the Mtb kinase

Compound: CN[C@@H]1C[C@H]2O[C@@](C)([C@@H]1OC)n1c3ccccc3c3c4c(c5c6ccccc6n2c5c31)C(=O)NC4 [staurosporine]
- inhibition of cell wall / peptidoglycan dependent germination (result in words) [1]: sensitive to inhibition by the ATP analog staurosporine (˜pM); also recorded: inhibited with the small molecular kinase inhibitor staurosporine, a natural product of another soil bacterium, at pM concentrations; also recorded: blocking germination of dormant spores at very low (˜pM) concentrations
- sensitivity of germination to inhibition (result in words) [2]: less sensitive to inhibition by the ATP analog staurosporine (˜μM)
